Data as given in paper PMC6996959.
No constants are given. Whether binding was seen depends on the method and setting. In cells and extracts the contact can be indirect. Some binding calls cover weakened binding; strength is not graded here.

Target: T1, receptor-interacting protein kinase 1 (endogenous, mouse heart) (mouse (endogenous in mouse heart)), Q60855
T1 chain: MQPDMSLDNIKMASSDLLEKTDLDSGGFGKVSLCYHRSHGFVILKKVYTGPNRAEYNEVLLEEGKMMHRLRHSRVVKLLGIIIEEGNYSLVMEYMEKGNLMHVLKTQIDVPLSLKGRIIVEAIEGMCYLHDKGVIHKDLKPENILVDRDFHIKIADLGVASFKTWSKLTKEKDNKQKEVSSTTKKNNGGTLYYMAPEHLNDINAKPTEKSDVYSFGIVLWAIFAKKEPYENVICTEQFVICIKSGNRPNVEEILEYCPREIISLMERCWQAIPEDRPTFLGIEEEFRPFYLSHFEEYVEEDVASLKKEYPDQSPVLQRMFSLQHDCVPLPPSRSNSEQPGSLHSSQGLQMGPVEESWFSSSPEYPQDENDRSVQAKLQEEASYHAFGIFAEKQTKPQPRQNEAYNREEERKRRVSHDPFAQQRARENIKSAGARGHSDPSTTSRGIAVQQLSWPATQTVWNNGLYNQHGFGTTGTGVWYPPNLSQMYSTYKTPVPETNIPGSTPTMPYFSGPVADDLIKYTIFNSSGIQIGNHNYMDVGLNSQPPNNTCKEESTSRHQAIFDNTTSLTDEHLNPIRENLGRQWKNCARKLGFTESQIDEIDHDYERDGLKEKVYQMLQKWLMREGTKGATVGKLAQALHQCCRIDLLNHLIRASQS
Test: co-IP; co-immunoprecipitation from young and aged mouse hearts, sham, ischemia (30 min) or ischemia followed by 4 hr of reperfusion; also from aged hearts after Nec-1, Ad-sh-p62 or metformin and from RIP3 KO hearts; which protein was precipitated is not told in the text shown
Conditions: remark: other sources report otherwise

binding: binds
B1: receptor-interacting protein kinase 3 (endogenous, mouse heart), Q9QZL0 1-486 (protein)
chain: MSSVKLWPTGASAVPLVSREELKKLEFVGKGGFGVVFRAHHRTWNHDVAVKIVNSKKISWEVKAMVNLRNENVLLLLGVTEDLQWDFVSGQALVTRFMENGSLAGLLQPECPRPWPLLCRLLQEVVLGMCYLHSLNPPLLHRDLKPSNILLDPELHAKLADFGLSTFQGGSQSGSGSGSGSRDSGGTLAYLDPELLFDVNLKASKASDVYSFGILVWAVLAGREAELVDKTSLIRETVCDRQSRPPLTELPPGSPETPGLEKLKELMIHCWGSQSENRPSFQDCEPKTNEVYNLVKDKVDAAVSEVKHYLSQHRSSGRNLSAREPSQRGTEMDCPRETMVSKMLDRLHLEEPSGPVPGKCPERQAQDTSVGPATPARTSSDPVAGTPQIPHTLPFRGTTPGPVFTETPGPHPQRNQGDGRHGTPWYPWTPPNPMTGPPALVFNNCSEVQIGNYNSLVAPPRTTASSSAKYDQAQFGRGRGWQPFHK
